Our source for the binding values is PMC4926252 (Scientific Reports, 2016).

In assay [1] the target is PstS (PA5369), periplasmic phosphate-binding protein, recombinant (P. aeruginosa) (UniProt G3XDA8). The experiment in a line: AUC; sedimentation velocity, 45,000 rpm, 6 °C, polybuffer; CtpL-LBD and PstS individually and as a mixture; c(s) method; both purified.
The target of assay [2] is T1, ligand binding domain of the chemoreceptor CtpL (CtpL-LBD) (P. aeruginosa) (UniProt Q9HUW6).
T1 sequence: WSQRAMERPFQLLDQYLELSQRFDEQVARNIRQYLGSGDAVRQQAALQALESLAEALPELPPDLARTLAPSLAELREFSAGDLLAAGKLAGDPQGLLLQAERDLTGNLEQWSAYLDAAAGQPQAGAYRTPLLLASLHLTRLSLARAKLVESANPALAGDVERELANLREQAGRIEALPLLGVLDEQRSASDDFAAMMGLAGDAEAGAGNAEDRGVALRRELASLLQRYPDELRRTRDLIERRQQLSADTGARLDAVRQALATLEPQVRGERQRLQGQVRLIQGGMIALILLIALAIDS
The assay is described as above.

These are yes or no findings as the source states them, for the method shown.

B1: PstS (PA5369), periplasmic phosphate-binding protein, recombinant (protein, UniProt G3XDA8 25-323)
chain: AIDPALPEYQKASGVSGNLSSVGSDTLANLMTMWAEEYKRLYPNVNIQIQAAGSSTAPPALTEGTANLGPMSRKMKDVELQAFEQKYGYKPTAVPVAVDALAIFVHKDNPIKGLTMQQVDAIFSATRLCGSKQDVKTWGDLGLTGDWAKKPVQLFGRNSVSGTYGYFKEEALCKGDFRPNVNEQPGSASVVQSVSQSLNGIGYSGIGYKTASVKTVALAKKEGAAFVEDNEQNALNGTYPLSRFLYVYVNKAPNKPLDPLEAQFLKLVLSKTGQQVVVKDGYIPLPAKVAEKAIKELGL
Regarding B1, the binding result in assay [1] is given as “no binding”.

B2: ligand binding domain of the chemoreceptor CtpL (CtpL-LBD) (domain or fragment, P. aeruginosa, UniProt Q9HUW6 27-324, looked up)
chain: WSQRAMERPFQLLDQYLELSQRFDEQVARNIRQYLGSGDAVRQQAALQALESLAEALPELPPDLARTLAPSLAELREFSAGDLLAAGKLAGDPQGLLLQAERDLTGNLEQWSAYLDAAAGQPQAGAYRTPLLLASLHLTRLSLARAKLVESANPALAGDVERELANLREQAGRIEALPLLGVLDEQRSASDDFAAMMGLAGDAEAGAGNAEDRGVALRRELASLLQRYPDELRRTRDLIERRQQLSADTGARLDAVRQALATLEPQVRGERQRLQGQVRLIQGGMIALILLIALAIDS
notes: Cloned into pET28b(+); Held on a HisTrap column as bait in the pull-down; The discussion gives 286 amino acids for CtpL-LBD, whereas 27-324 is 298 residues; also called PA4844; source: E. coli BL21 (DE3), purified (HisTrap) from the soluble fraction
B2: in assay [2], the binding entry was “no binding”.
